In US10245299B2, “Autoassembling peptides for the treatment of pulmonary bulla” (3-D MATRIX, LTD., priority 2014, dated 2019):
Some results were stated once for a whole list of compounds, not compound by compound. Where no end group is shown, it is not given here.

Assay: pH and appearance of 2.5% peptide solutions after adding 0.1 N NaOH
Type: physicochemical
Settings: 2.5% peptide solutions with 0.1 N NaOH
Protocol: To adjust the pH level of the peptide solutions by way of example, 0.1 N NaOH was added to 2 mL of 2.5% peptide solutions and their pH and appearance were measured.

pH increase that did not change the clear color of the solution (apparent stiffness increased), ≤ 3.5:
Arg-Ala-Asp-Ala-Arg-Ala-Asp-Ala-Arg-Ala-Asp-Ala-Arg-Ala-Asp-Ala [PuraMatrix®]
Ile-Glu-Ile-Lys-Ile-Glu-Ile-Lys-Ile-Glu-Ile-Lys-Ile [IEIK13]
KLDLKLDLKLDL [KLD12]
